# This list was built around the results that the source calls inconclusive (neither active nor inactive); the mix of calls is not that of the screen. Potencies of inconclusive entries are doubtful fits and often do not repeat. The source made the active and inactive calls. Calls come from the whole dose curve; as a rule, active = well fitted cell-killing curve with a large enough effect; inconclusive = small, poorly fitted or top-dose-only effect, or effect the other way; inactive = no such curve, though single readings can be large or run the other way.
# Test: Quantitative High-Throughput drug screen in 47 multiple myeloma cell lines against the NCATS MIPE library collection: FR4_PLB cell viability assay (AID 1918924; note: nearly all actives have a fitted effect of over 35% in size;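 for viability (% of DMSO control): 100% = DMSO-treated cells and 0% = wells with media only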)
# Conditions: FR4_PLB myeloma cells viability, CellTiter-Glo ATP, 48 h; series mostly up to 45.8 µM; viability (% of DMSO control): at the top concentration
# How it was run: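 Inhibition of cell viability is measured here. Each line was plated at 500 cells per well, treated with MIPE 4.0 drugs, kept 48 hours at 37C, then assayed for ATP content by CellTiter-Glo luminescence.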
# Potency is the fitted concentration of half-maximal effect.
Compound,Potency,viability (% of DMSO control)
CC1(CN2CCC(n3c(=O)[nH]c4ccccc43)CC2)OCc2ccccc2-n2cccc21 (stereo unspecified),"inconclusive: 0.0012 µM [cytotoxic, full curve, poor fit]",
NC[C@H](O)c1ccc(O)c(O)c1,"inconclusive: 0.0059 µM [cytotoxic, full curve, poor fit]",
O=C(c1ccc(C(=O)N2CCC(N3CCCC3)CC2)c(Nc2ccccc2)c1)N1CCC(N2CCCC2)CC1,,inactive: 135%
C#C[C@]1(O)CC[C@@H]2[C@@H]3CCC4=CC(=O)CC[C@@H]4[C@H]3CC[C@@]21CC,"inconclusive: 10.5 µM [cytotoxic, partial curve, poor fit]",
Clc1ccc(Nc2nnc(Cc3ccncc3)c3ccccc23)cc1,,inactive: 109%
C=C1C[C@@]2(O)O[C@@]3(C[C@H]2C(C)C)[C@H](C)CC[C@H]13,"inconclusive: 41.8 µM [cytotoxic, single point]",
OC[C@H]1O[C@@H](O[C@H]2[C@@H](O)[C@@](O)(CO)O[C@@H]2CO)[C@H](O)[C@@H](O)[C@@H]1O,"inconclusive: 0.0017 µM [cytotoxic, full curve, poor fit]",
CC12CC3CC(C)(C1)CC(N)(C3)C2,"inconclusive: 37.2 µM [cytotoxic, single point]",
Nc1[nH]nc2nnc(-c3c(-c4ccccc4)nn4ccccc34)cc12,"inconclusive: 1.32 µM [rising, partial curve, poor fit]",
CC(C)c1cnn2c(NCc3ccccc3)cc(NCCCCCCN)nc12,active: 18.7 µM,
CCN[C@H]1C[C@H](C)S(=O)(=O)c2sc(S(N)(=O)=O)cc21,,inactive: 112%

# Source: PubChem BioAssay (NCATS)
